Our source for the NP40-soluble protein abundance values is the supplement of paper PMC6411743.

Amino acid sequences for entries named in this document (tags omitted). A change or cut given only in a name is not applied to a line headed by its entry.
UniProt P14854, whole entry: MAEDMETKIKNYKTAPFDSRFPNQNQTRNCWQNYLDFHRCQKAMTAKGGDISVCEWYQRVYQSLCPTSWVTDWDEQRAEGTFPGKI
UniProt P05106: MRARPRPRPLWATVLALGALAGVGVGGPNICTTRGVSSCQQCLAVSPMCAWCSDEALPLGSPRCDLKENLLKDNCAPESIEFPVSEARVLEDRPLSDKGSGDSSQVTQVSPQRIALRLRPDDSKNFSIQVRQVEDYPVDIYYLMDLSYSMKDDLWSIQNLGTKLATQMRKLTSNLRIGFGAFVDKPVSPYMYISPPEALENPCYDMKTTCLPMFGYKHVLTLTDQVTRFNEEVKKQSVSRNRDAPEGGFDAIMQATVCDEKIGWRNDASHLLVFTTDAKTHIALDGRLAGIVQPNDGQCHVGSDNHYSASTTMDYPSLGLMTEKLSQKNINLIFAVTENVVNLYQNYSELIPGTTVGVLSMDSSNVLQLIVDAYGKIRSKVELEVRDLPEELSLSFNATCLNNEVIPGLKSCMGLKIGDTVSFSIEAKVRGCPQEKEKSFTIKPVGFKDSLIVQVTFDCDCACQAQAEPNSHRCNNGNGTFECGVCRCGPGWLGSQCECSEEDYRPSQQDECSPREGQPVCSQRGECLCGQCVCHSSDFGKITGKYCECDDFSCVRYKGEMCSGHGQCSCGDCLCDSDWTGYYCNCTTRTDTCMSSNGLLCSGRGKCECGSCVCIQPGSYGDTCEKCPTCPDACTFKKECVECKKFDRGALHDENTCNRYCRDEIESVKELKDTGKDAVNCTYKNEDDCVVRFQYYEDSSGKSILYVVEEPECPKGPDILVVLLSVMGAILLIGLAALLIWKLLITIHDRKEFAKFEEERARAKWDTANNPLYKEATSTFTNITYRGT
UniProt P09429: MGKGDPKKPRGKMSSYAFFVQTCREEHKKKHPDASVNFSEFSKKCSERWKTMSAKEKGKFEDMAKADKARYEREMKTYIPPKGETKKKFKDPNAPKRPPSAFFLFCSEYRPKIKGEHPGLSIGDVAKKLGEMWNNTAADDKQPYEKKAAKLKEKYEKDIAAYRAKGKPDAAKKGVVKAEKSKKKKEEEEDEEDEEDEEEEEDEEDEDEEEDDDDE
UniProt P13051, whole entry: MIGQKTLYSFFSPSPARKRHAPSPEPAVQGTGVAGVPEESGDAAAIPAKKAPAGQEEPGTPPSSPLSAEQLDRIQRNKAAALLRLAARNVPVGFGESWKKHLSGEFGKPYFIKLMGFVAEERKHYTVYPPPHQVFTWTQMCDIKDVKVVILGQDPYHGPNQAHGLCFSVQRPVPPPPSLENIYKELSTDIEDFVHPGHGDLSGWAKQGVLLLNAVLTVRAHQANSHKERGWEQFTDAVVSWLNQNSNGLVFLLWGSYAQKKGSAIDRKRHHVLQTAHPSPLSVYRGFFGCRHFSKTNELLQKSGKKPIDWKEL
UniProt P14921: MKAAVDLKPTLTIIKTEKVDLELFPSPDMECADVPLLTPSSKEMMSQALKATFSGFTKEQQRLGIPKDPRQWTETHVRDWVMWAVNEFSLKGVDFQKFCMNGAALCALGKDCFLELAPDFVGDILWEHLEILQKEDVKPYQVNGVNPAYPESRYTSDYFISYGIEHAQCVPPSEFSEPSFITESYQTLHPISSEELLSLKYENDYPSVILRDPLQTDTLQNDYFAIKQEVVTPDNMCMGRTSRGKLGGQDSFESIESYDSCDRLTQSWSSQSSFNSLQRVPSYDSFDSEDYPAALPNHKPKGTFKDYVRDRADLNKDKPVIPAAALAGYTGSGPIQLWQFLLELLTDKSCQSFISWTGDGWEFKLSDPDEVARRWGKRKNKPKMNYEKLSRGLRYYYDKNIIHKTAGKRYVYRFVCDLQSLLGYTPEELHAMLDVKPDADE
UniProt P01737: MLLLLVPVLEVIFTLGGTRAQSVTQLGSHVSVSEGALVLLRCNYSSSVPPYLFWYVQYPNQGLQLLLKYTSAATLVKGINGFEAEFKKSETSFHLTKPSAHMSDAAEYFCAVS
UniProt P13796: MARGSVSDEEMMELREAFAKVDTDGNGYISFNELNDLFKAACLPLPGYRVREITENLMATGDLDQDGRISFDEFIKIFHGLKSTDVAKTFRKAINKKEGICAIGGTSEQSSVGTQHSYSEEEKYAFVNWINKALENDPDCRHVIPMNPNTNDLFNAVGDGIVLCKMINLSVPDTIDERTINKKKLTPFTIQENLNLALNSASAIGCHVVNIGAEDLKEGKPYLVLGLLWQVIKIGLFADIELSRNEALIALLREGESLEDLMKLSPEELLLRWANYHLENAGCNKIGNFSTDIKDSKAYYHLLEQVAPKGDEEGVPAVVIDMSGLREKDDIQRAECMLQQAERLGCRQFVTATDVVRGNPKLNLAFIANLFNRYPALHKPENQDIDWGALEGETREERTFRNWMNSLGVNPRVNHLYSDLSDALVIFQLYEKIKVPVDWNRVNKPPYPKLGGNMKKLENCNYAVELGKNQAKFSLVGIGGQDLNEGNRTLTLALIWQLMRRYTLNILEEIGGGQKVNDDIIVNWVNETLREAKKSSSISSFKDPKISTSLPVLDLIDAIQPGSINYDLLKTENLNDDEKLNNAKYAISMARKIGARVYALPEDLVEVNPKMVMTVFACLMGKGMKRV
UniProt P0C2W1: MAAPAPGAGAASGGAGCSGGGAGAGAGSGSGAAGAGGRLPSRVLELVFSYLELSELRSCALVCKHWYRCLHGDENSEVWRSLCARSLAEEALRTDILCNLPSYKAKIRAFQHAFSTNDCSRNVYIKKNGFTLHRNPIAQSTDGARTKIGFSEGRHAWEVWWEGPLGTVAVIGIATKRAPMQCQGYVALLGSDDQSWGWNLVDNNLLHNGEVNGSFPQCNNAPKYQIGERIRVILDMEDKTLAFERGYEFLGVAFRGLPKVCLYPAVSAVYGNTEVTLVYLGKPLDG
UniProt P00167, whole entry: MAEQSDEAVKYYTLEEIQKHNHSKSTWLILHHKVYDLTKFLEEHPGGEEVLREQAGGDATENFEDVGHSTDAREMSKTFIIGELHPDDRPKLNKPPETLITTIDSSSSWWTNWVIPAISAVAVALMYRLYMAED
UniProt P15927: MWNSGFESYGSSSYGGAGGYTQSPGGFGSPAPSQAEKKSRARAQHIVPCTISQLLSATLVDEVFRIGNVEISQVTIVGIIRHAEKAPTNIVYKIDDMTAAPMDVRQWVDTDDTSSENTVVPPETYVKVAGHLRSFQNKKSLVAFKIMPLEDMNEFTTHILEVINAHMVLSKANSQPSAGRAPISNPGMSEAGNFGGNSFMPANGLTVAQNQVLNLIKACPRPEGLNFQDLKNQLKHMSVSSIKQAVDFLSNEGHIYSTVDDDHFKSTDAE
UniProt P11279: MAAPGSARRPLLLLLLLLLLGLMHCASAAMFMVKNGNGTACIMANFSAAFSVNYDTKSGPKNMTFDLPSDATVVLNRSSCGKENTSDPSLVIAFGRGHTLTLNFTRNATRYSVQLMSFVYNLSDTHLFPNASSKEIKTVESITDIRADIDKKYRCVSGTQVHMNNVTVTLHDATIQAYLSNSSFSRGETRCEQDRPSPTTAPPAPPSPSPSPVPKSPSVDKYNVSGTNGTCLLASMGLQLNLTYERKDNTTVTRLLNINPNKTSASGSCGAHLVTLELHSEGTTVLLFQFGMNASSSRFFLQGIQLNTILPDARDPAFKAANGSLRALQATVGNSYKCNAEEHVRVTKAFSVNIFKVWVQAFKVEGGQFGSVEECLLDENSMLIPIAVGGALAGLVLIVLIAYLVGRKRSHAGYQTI
UniProt O95989: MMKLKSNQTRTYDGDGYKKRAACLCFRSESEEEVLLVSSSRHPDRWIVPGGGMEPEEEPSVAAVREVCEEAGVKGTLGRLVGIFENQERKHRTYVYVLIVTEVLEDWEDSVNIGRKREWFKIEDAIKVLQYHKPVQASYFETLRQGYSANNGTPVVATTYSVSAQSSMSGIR
UniProt P10809, whole entry: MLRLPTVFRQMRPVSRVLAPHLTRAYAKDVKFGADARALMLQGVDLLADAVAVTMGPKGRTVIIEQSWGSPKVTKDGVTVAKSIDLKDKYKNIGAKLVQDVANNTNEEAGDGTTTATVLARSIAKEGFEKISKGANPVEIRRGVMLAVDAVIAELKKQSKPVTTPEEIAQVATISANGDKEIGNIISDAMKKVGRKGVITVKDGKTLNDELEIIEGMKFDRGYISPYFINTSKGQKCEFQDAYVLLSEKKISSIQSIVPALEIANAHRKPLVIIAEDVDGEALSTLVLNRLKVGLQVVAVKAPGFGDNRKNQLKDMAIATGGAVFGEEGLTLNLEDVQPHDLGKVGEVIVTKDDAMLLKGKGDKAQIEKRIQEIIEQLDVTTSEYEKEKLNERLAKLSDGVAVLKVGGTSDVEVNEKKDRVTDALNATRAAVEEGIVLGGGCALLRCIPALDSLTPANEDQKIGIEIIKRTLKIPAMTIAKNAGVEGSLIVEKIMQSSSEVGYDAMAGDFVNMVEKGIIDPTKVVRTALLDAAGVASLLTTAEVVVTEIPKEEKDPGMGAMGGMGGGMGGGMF
UniProt P05556, whole entry: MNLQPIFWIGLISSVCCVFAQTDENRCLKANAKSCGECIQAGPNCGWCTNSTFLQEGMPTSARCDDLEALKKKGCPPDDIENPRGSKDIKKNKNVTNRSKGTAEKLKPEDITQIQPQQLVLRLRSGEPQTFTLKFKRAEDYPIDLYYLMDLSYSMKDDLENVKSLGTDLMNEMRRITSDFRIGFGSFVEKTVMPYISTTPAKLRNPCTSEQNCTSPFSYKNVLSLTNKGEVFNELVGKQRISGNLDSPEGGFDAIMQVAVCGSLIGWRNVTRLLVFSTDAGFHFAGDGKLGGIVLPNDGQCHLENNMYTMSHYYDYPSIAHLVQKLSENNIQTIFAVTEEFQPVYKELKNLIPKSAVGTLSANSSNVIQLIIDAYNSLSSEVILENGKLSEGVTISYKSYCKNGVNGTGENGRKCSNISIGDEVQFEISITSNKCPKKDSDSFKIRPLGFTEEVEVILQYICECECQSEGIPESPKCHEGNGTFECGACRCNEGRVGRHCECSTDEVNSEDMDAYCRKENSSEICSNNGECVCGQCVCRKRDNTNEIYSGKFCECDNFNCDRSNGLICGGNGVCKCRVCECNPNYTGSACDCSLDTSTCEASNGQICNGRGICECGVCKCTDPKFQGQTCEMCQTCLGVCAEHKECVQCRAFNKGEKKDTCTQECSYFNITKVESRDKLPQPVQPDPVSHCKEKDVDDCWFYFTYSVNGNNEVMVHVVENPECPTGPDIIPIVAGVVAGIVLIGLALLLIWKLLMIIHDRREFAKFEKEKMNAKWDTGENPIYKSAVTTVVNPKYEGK
UniProt P00558: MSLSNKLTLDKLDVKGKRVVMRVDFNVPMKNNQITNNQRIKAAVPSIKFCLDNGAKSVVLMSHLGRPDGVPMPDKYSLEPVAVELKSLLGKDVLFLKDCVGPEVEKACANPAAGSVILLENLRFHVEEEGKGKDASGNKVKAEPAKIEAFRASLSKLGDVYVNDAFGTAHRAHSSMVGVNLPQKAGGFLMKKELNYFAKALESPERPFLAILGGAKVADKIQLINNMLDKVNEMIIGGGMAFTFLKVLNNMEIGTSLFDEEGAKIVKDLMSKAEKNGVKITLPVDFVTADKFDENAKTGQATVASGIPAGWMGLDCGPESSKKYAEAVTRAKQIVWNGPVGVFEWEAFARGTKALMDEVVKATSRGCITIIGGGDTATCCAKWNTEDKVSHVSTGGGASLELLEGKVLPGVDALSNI
UniProt P10619: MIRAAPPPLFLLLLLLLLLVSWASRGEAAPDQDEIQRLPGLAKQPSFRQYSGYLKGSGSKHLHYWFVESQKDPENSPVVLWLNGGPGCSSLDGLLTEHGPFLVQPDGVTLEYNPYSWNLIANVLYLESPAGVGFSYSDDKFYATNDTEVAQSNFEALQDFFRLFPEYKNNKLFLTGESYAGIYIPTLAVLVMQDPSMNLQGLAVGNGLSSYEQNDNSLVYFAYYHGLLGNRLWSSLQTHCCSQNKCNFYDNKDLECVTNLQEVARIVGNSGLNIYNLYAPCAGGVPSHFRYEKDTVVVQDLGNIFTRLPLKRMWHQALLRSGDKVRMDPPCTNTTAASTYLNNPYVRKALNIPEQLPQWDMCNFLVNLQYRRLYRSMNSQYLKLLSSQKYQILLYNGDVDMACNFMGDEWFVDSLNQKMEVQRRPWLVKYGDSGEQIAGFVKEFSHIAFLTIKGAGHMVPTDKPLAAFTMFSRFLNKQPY
UniProt P13804: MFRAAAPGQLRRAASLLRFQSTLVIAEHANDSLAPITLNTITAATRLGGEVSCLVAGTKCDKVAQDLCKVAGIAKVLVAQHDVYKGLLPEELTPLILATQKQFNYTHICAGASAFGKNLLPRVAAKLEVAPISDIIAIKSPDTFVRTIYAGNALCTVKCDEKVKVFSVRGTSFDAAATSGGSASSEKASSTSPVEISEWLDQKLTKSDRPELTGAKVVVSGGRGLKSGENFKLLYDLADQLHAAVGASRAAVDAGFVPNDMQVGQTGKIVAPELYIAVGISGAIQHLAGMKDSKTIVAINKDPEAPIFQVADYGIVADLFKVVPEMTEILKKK

± gives the standard deviation of the averaged measurements. The entries are a selection whose mix differs from that of the whole data set.

Compound in the assay: Nc1ncnc2c1ncn2[C@@H]1O[C@H](COP(=O)(O)OP(=O)(O)OP(=O)(O)O)[C@@H](O)[C@H]1O [adenosine triphosphate]
As to the kind of experiment: NP40-soluble protein abundance relative to vehicle (solubility fold change) (ratio); higher = more soluble protein in presence of ATP. The method, boiled down:
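Across three independent experiments, values are fold changes against the detergent-processed vehicle for each replicate, based on vsn-normalised intensities. The samples were Jurkat crude lysate treated with eight concentrations (0.1 to 10 mM) for 10 min at room temperature and then 3 min at 37 °C. Lysate was solubilised with 0.8% NP40 and benzonase, ultracentrifuged, and the supernatant analysed by TMT-labelled LC-MS/MS.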

For MYL6B (UniProt P14649), the NP40-soluble protein abundance stood at 0.924 ± 0.1 (concentration: 1mM); 0.93 ± 0.1 (concentration: 2mM); 0.908 ± 0.056 (concentration: 4mM); 0.953 ± 0.13 (concentration: 6mM); 0.876 ± 0.034 (concentration: 8mM); 0.811 ± 0.11 (concentration: 10mM).
For COX6B1 (UniProt P14854), the NP40-soluble protein abundance (concentration: 1mM) came to 0.852 ± 0.078; the NP40-soluble protein abundance (concentration: 2mM) was 0.85 ± 0.13; the NP40-soluble protein abundance (concentration: 4mM) was found to be 0.906 ± 0.073; the NP40-soluble protein abundance (concentration: 6mM) stood at 0.839 ± 0.14; the NP40-soluble protein abundance (concentration: 8mM) was 0.857 ± 0.071; the NP40-soluble protein abundance (concentration: 10mM) was 0.827 ± 0.12.
Take UniProt P05106: the NP40-soluble protein abundance runs as follows: (concentration: 1mM) 0.974 ± 0.025; (concentration: 2mM) 0.978 ± 0.075; (concentration: 4mM) 1 ± 0.048; (concentration: 6mM) 1.03 ± 0.038; (concentration: 8mM) 0.938 ± 0.013; (concentration: 10mM) 0.96 ± 0.031.
For the target HMGB1 (UniProt P09429), the NP40-soluble protein abundance runs as follows: (concentration: 1mM) 0.993 ± 0.12; (concentration: 2mM) 0.959 ± 0.062; (concentration: 4mM) 1.02 ± 0.045; (concentration: 6mM) 1.12 ± 0.076; (concentration: 8mM) 1.07 ± 0.02; (concentration: 10mM) 0.89 ± 0.2.
Consider UniProt P13051 and related entries, for which the NP40-soluble protein abundance amounted to 1.03 ± 0.13 (concentration: 1mM); 0.999 ± 0.11 (concentration: 2mM); 0.991 ± 0.1 (concentration: 4mM); 0.953 ± 0.074 (concentration: 6mM); 0.965 ± 0.089 (concentration: 8mM); 0.94 ± 0.048 (concentration: 10mM).
As to ETS1 (UniProt P14921), the NP40-soluble protein abundance turned out to be 0.911 ± 0.0097 (concentration: 1mM); 0.886 ± 0.032 (concentration: 2mM); 0.882 ± 0.02 (concentration: 4mM); 0.8873 ± 0.0059 (concentration: 6mM); 0.878 ± 0.037 (concentration: 8mM); 0.876 ± 0.038 (concentration: 10mM).
As for UniProt P01737, the NP40-soluble protein abundance runs as follows: (concentration: 1mM) 0.935 ± 0.023; (concentration: 2mM) 0.949 ± 0.059; (concentration: 4mM) 0.928 ± 0.055; (concentration: 6mM) 0.956 ± 0.054; (concentration: 8mM) 0.892 ± 0.048; (concentration: 10mM) 0.901 ± 0.034.
As for LCP1 (UniProt P13796), the NP40-soluble protein abundance runs as follows: (concentration: 1mM) 0.962 ± 0.048; (concentration: 2mM) 0.931 ± 0.031; (concentration: 4mM) 0.981 ± 0.094; (concentration: 6mM) 0.854 ± 0.15; (concentration: 8mM) 0.981 ± 0.077; (concentration: 10mM) 0.792 ± 0.06.
FBXO45 (UniProt P0C2W1): the NP40-soluble protein abundance worked out at 0.909 ± 0.12 (concentration: 1mM); 0.892 ± 0.14 (concentration: 2mM); 0.965 ± 0.11 (concentration: 4mM); 0.847 ± 0.081 (concentration: 6mM); 0.915 ± 0.072 (concentration: 8mM); 0.887 ± 0.1 (concentration: 10mM).
For the target CYB5A (UniProt P00167), the NP40-soluble protein abundance runs as follows: (concentration: 1mM) 0.911 ± 0.012; (concentration: 2mM) 0.899 ± 0.021; (concentration: 4mM) 0.885 ± 0.017; (concentration: 6mM) 0.8916 ± 0.0088; (concentration: 8mM) 0.871 ± 0.031; (concentration: 10mM) 0.839 ± 0.076.
In the case of RPA2 (UniProt P15927), the NP40-soluble protein abundance stood at 0.98 ± 0.021 (concentration: 1mM); 0.9817 ± 0.002 (concentration: 2mM); 0.945 ± 0.033 (concentration: 4mM); 1.006 ± 0.0043 (concentration: 6mM); 0.942 ± 0.033 (concentration: 8mM); 0.944 ± 0.039 (concentration: 10mM).
As for LAMP1 (UniProt P11279), the NP40-soluble protein abundance is, setting by setting: (concentration: 1mM) 0.941 ± 0.034; (concentration: 2mM) 0.917 ± 0.023; (concentration: 4mM) 0.954 ± 0.018; (concentration: 6mM) 0.967 ± 0.045; (concentration: 8mM) 0.913 ± 0.064; (concentration: 10mM) 0.907 ± 0.021.
With UniProt P09497-2, the NP40-soluble protein abundance (concentration: 1mM) is 0.993 ± 0.063; the NP40-soluble protein abundance (concentration: 2mM) turned out to be 1.07 ± 0.11; the NP40-soluble protein abundance (concentration: 4mM) is 1.1 ± 0.09; the NP40-soluble protein abundance (concentration: 6mM) came to 1.19 ± 0.14; the NP40-soluble protein abundance (concentration: 8mM) worked out at 0.996 ± 0.016; the NP40-soluble protein abundance (concentration: 10mM) worked out at 1.02 ± 0.079.
In the case of NUDT3 (UniProt O95989), the NP40-soluble protein abundance is, setting by setting: (concentration: 1mM) 0.962 ± 0.08; (concentration: 2mM) 1.04 ± 0.14; (concentration: 4mM) 0.938 ± 0.077; (concentration: 6mM) 0.978 ± 0.099; (concentration: 8mM) 0.938 ± 0.068; (concentration: 10mM) 0.947 ± 0.067.
As for HSPD1 (UniProt P10809), the NP40-soluble protein abundance is, setting by setting: (concentration: 1mM) 0.944 ± 0.22; (concentration: 2mM) 1.06 ± 0.1; (concentration: 4mM) 0.926 ± 0.14; (concentration: 6mM) 1.11 ± 0.076; (concentration: 8mM) 0.9953 ± 0.0068; (concentration: 10mM) 0.92 ± 0.093.
As to ITGB1 (UniProt P05556), the NP40-soluble protein abundance runs as follows: (concentration: 1mM) 0.935 ± 0.064; (concentration: 2mM) 0.946 ± 0.025; (concentration: 4mM) 0.923 ± 0.022; (concentration: 6mM) 0.977 ± 0.067; (concentration: 8mM) 0.913 ± 0.017; (concentration: 10mM) 0.875 ± 0.035.
PGK1 (UniProt P00558): the NP40-soluble protein abundance (concentration: 1mM) was 0.97 ± 0.04; the NP40-soluble protein abundance (concentration: 2mM) is 0.933 ± 0.035; the NP40-soluble protein abundance (concentration: 4mM) was 0.936 ± 0.029; the NP40-soluble protein abundance (concentration: 6mM) was 0.941 ± 0.035; the NP40-soluble protein abundance (concentration: 8mM) was 0.924 ± 0.011; the NP40-soluble protein abundance (concentration: 10mM) stood at 0.928 ± 0.023.
Consider UniProt P09651 and related entries, for which the NP40-soluble protein abundance was 1.06 ± 0.14 (concentration: 1mM); 1.09 ± 0.12 (concentration: 2mM); 1.07 ± 0.12 (concentration: 4mM); 1.22 ± 0.17 (concentration: 6mM); 1.1 ± 0.1 (concentration: 8mM); 1.17 ± 0.075 (concentration: 10mM).
With UniProt P10619 and related entries, the NP40-soluble protein abundance runs as follows: (concentration: 1mM) 0.93 ± 0.036; (concentration: 2mM) 0.9369 ± 0.0079; (concentration: 4mM) 0.897 ± 0.035; (concentration: 6mM) 0.863 ± 0.051; (concentration: 8mM) 0.887 ± 0.018; (concentration: 10mM) 0.886 ± 0.067.
As for ETFA (UniProt P13804), the NP40-soluble protein abundance is 0.955 ± 0.013 (concentration: 1mM); 0.944 ± 0.027 (concentration: 2mM); 0.92 ± 0.025 (concentration: 4mM); 0.95 ± 0.02 (concentration: 6mM); 0.908 ± 0.035 (concentration: 8mM); 0.922 ± 0.038 (concentration: 10mM).
